Laboratory results taken from US20060093578A1, “Method and composition for treating multiple sclerosis” (Kyorin Pharmaceutical Co., Ltd., priority 2004, published 2006).
At least one structure is not confirmed: it was looked up by name or label, or the drawing left a doubt.

Columns and labels:
Assay type in all cases: cell-based, C57BL/6J mice
[1] = tested on: IL-12 p70 production by microglia; assay: IL-12 p70 production by LPS + IFNγ-stimulated microglia (ELISA); details: LPS and IFNγ stimulation; graded doses (FIG. 1, FIG. 9A)
Protocol: Samples used for the experiments were prepared as described below. […] The cultures were maintained with Dulbecco's modified Eagle's minimum essential medium supplemented with 10% fetal calf serum, 5 μg/ml bovine insulin, and 0.2% glucose.
The supernatant was then collected and stored at −70° C. until assessed. From the remaining cells, total RNA was extracted, following the guanidinium thiocyanate method (RNeasy Mini Kit;QIAGEN). […]
Cytokine production was measured with an ELISA kit specific for IL1, IL-6, TNFα, and IL-12 p70 (TECHNE Corp. MN). NO production was determined by Griess reaction. Briefly, a 50 μl aliquot of supernatants were mixed with an equal volume of Griess reagent (0.1% N-ethylenediarnine dihydrochloride, 1% sulfanilamide, and 2.5% phosphoric acid) and incubated for 15 minutes at room temperature, and the absorbance was read at 540 nm on a microtiter plate reader. Nitrite concentrations were calculated from a standard curve of NaNO2 (Yoshikawa M, Suzumura A, Tamaru T, et al. “Effects of phosphodiesterase inhibitors on microglia.” Multiple Scler 1999;5: 126-133, the contents of which are hereby incorporated by reference in their entirety).

[2] = tested on: MOG 35-55-specific T cells; assay: Cytokine production / Th1 differentiation of MOG 35-55-specific T cells with microglia as antigen presenting cells (ELISA)
microglia [3] = assay: NO production by microglia (Griess reaction); details: LPS+IFNγ-stimulated microglia; 10^4 U/ml IFNβ; 1-100 μM ibudilast (FIG. 8A)
microglia [4] = assay: Cytokine production (TNFα, IL-1β, IL-6, IL-10) by microglia (ELISA); details: LPS-stimulated microglia; 10^4 U/ml IFNβ; 1-100 μM ibudilast (FIG. 8B)
microglia [5] = assay: mRNA expression of inflammatory mediators and IL-12 p35/p40 in microglia (RT-PCR); details: LPS and IFNγ-treated microglia (FIG. 1, FIG. 10)
peritoneal macrophages = assay: Production of inflammatory mediators by peritoneal macrophages (ELISA, Griess); details: IFNβ-treated macrophages (data not shown)

For `C=C[C@@]1(C)CC(=O)[C@]2(O)[C@@]3(C)[C@@H](O)CCC(C)(C)[C@@H]3[C@H](O)[C@H](OC(C)=O)[C@@]2(C)O1` [forskoline, forskolin], which “IL-12 production by microglia” value [1] is on record?
Its value is “dose-dependently suppressed”.

How did the “differentiation of MOG 35-55-specific T cells into Th1 phenotype” value ([2]; MOG 35-55 presented by microglia) turn out when `CC(C)C(=O)c1c(C(C)C)nn2ccccc12` [Ibudilast, ibudilast] was run?
Its value is “suppressed”.

What about the “production of IFNγ by MOG-specific T cells” value ([2]; MOG 35-55 presented by microglia (FIG. 11)) of the same molecule?
Its value is “significantly suppressed”.

And the “NO production enhanced by IFNβ” value (microglia [3])?
The value was “dose-dependently suppressed”.

And the “IL-12 production by microglia” value [1]?
Its value is “dose-dependently suppressed”.

And the “TNFα production enhanced by IFNβ” value (microglia [4])?
Its value is “dose-dependently suppressed”.

What about the “expression of p35 and p40 mRNA” value (microglia [5]) of the same molecule?
The value was “dose-dependently suppressed”.

What about the NO production (peritoneal macrophages) of the same molecule?
Its NO production is “suppressed”.

And the TNFα production (peritoneal macrophages)?
Its TNFα production is “suppressed”.
